Measurements reported in PubChem BioAssay AID743454 (Peter MacCallum Cancer Centre, 2014).
Purpose: 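Search for knock-downs that restore vorinostat killing in resistant colon cancer cells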 (primary screen). System: human HCT116-VR colon cancer cells, selected for vorinostat resistance. Reagents: siRNA pool against human genes, 40 nM siRNA pool. Time to read-out: vorinostat for 24 h, read-out about 72 h after transfection. Conditions: vorinostat at 2.5 µM final. Measurement: 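Cell viability by CellTiter-Fluor and caspase 3/7 activity by luminescence, each scaled to mock wells per plate, duplicates averaged, then robust z-scored over all plates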. Direction: viability robust z-score: higher = more viable cells than screen typical; caspase robust z-score: higher = more caspase 3/7 activity than screen typical. Rule for the call: 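Hits are knock-downs in viability class RV1/RV2 or caspase class CA1/CA2, excluding ones that killed cells in the no-drug cell-count arm; hits then retested with single siRNAs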.
Here is a random part of about 18,000 deposited reagents. In the full data, 450 (2.5%) got an active call. 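Single biological run; no consistent viability z cut-off exists, so the class columns, not z-scores, define the calls.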 A number with no mark means an inactive call.

For HPS5 (GeneID 11234), the entry reads viability hit class no change; caspase hit class no change; viability robust z-score -0.23; caspase robust z-score 0.88. Knock-down of CA8 (GeneID 767) came out at: viability hit class no change; caspase hit class no change; viability robust z-score 0.86; caspase robust z-score 1.39. For IL5 (GeneID 3567) the deposit lists viability hit class no change; caspase hit class no change; viability robust z-score 0.08; caspase robust z-score -0.64. After knock-down of PRPSAP1 (GeneID 5635), the record shows viability hit class no change; caspase hit class no change; viability robust z-score -0.36; caspase robust z-score -0.55. PKN2 (GeneID 5586) showed viability hit class no change; caspase hit class no change; viability robust z-score -2.08; caspase robust z-score 0.42. SIGLEC6 (GeneID 946) gave viability hit class no change; caspase hit class no change; viability robust z-score 0.6; caspase robust z-score -0.06.

After knock-down of YAF2 (GeneID 10138) the results were viability hit class no change; caspase hit class no change; viability robust z-score 0.5; caspase robust z-score -0.81. H4C3 (GeneID 8364) scored viability hit class no change; caspase hit class no change; viability robust z-score -0.97; caspase robust z-score 1.44. Silencing of CCKBR (GeneID 887) resulted in: viability hit class no change; caspase hit class no change; viability robust z-score -0.36; caspase robust z-score -0.66. Silencing of PDZK1 (GeneID 5174) gave: viability hit class no change; caspase hit class no change; viability robust z-score -0.24; caspase robust z-score -0.21. KLHL17 (GeneID 339451) scored viability hit class no change; caspase hit class no change; viability robust z-score 0; caspase robust z-score 1. With knock-down of HABP4 (GeneID 22927) the results were viability hit class no change; caspase hit class no change; viability robust z-score 0.42; caspase robust z-score -0.4.

Sorted by “caspase robust z-score” (ascending): some entries from above
CCKBR (GeneID 887) — viability hit class: no change; caspase hit class: no change; viability robust z-score: -0.36; caspase robust z-score: -0.66
H4C3 (GeneID 8364) — viability hit class: no change; caspase hit class: no change; viability robust z-score: -0.97; caspase robust z-score: 1.44
